For one molecule, binding results are on record in PMC5126104, “Identification of a Chemoreceptor in Pseudomonas aeruginosa That Specifically Mediates Chemotaxis Toward α-Ketoglutarate” (Frontiers in Microbiology, 2016).

The target in this assay is McpK ligand binding domain (McpK-LBD) (Pseudomonas aeruginosa PAO1) (UniProt Q9HUB1). Briefly: AUC; sedimentation velocity, ligand-free McpK-LBD (10-50 uM), 7 °C, 5 mM Tris, 5 mM PIPES, 5 mM MES, pH 8.0; c(s) analysis in SEDFIT; both purified.

These are yes or no findings as the source states them, for the method shown. Some results given as binding are weak or reduced against the parent protein; the word gives no strength.

B1: McpK ligand binding domain (McpK-LBD) (domain or fragment, Pseudomonas aeruginosa PAO1, UniProt Q9HUB1 38-293, looked up)
chain: RTLTHQTALSEQLAEVASLMEQTQQAEQGRLAFEAGSDPRQAEQVRQTLAGMLQRLQALRDSELDPAALAHQVEAIEAYRKAFDDLAAADQQRSAARGVLVGTAQQALDSFARLEELMDASLAQQAGDPQALQRSRAVADLHQQLLMVRYQVRGYVFERSDKAEQAAFAAFDALRQAATTLRGQLPGEADAALEQAMGSLQGYRGGIEQFRAGVIRTRQAQQAMQSSTQDMARAGRTLTEAGRQLRESTASRDRAS
notes: No removal of the tag is described; In monomer-dimer equilibrium by AUC; also called PA5072-LBD; source: E. coli BL21 (DE3), pET28-McpK-LBD, purified (HisTrap column)
On to B1, for which the binding result is “binds”.
